Results: PubChem BioAssay AID588590 (National Center for Advancing Translational Sciences (NCATS), 2011)
Screen size: about 390,000 compounds; about 4,000 (1%) were called active. Inconclusive results, whose numbers are uncertain, are shown with a selection of clear calls. Calls follow the shape of the dose curve; as a rule, active = well fitted inhibition curve with a large enough effect; inconclusive = small, poorly fitted or top-dose-only effect, or another doubt; inactive = no such curve, though single readings can be large or run the other way. Potencies of inconclusive entries are doubtful fits and often do not repeat.

Sequences of proteins named here, by UniProt entry; tags and fusion partners are left off. A change or cut given only in a name is not applied to a line headed by its entry.
UniProt Q9UNA4: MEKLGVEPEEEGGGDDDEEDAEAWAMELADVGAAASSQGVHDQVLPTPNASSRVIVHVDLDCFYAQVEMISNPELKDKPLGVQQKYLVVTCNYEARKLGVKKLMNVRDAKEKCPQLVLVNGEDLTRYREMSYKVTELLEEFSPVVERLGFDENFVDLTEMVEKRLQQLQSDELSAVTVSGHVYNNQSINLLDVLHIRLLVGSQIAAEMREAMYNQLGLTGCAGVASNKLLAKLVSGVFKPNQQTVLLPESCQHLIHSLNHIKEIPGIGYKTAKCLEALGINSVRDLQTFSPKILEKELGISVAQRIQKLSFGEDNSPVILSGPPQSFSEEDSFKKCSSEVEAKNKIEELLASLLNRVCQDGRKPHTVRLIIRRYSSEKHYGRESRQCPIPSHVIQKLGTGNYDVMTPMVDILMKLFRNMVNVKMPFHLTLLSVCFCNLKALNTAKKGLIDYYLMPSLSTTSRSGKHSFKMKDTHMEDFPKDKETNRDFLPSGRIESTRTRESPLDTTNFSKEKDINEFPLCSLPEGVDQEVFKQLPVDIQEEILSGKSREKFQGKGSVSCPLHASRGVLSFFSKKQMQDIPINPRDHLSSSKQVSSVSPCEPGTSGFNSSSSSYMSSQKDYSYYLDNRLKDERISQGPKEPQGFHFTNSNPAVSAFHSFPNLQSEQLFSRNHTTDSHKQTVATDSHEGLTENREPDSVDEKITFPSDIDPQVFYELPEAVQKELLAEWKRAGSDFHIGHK

The molecules below were run against DNA polymerase iota (Homo sapiens) (UniProt Q9UNA4) (assay: qHTS for Inhibitors of Polymerase Iota). Conditions: Pol iota fluorescent replication assay, 10 min; series mostly up to 115 µM; activity, negative = inhibition: at the top concentration.
How it was run: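 Fluorescent replication assay read twice, at 0 min and 10 min after adding 50 nM (final) substrate. Enzyme (10 nM) and compounds were first incubated 15 min at room temperature; enzyme-free buffer wells were negative controls.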
Potency is read from the fitted curve at half-maximal effect.

SMILES	activity, negative = inhibition	Potency
COc1ccc(CNC(=O)COC(=O)c2cc(C)nc3ccccc23)cc1	inactive: 15.9%	–
CCCNc1nc(Nc2ccc([N+](=O)[O-])cc2)nc(N2CCOCC2)n1	inactive: 17.1%	–
Cc1occc1C(=O)Nc1cccc(/C=C/C(=O)O)c1	–	inconclusive: 1.26 µM [inhibitor, full curve, poor fit]
COc1cccc(N(CC(=O)NC(C)(C)C)C(=O)C2CSC(=O)C2)c1 (centres undefined)	inactive: 7.12%	–
O=C(Cn1ccc2cc(S(=O)(=O)N3CCCC3)ccc21)NCc1ccc(Cl)cc1	inactive: 12.5%	–
CCCC[C@@H]1CCCO[C@@](C(=O)NCc2ccccn2)(C(F)(F)F)C1	–	inconclusive: 70.8 µM [inhibitor, partial curve]
Cc1ccccc1C1c2[nH]c3ccccc3c2CCN1CCCn1cccn1 (centres undefined)	–	inconclusive: 89.1 µM [inhibitor, single point]
COC(=O)c1sc(N)c(C(=O)OC)c1Cn1ncc(Cl)c(Cl)c1=O	–	inconclusive: 15.8 µM [inhibitor, full curve, poor fit]
COc1ccc(C(=O)CCC(=O)N2CCN(c3cccc(Cl)c3)CC2)cc1	–	inconclusive: 70.8 µM [inhibitor, partial curve, poor fit]
C#Cc1ccc([C@@H]2C=C(C(=O)N3CCOCC3)O[C@H](OCCCCO)C2)cc1	–	inconclusive: 28.2 µM [inhibitor, partial curve]
O=C(CN1C(=O)C2CCCCN2c2ccc(C(=O)N3CCCC3)cc21)NCc1ccc(F)cc1 (centres undefined)	inactive: 33%	–
Cc1cccc(NC(=O)c2cc(-c3cccnc3)nc3c(C)cccc23)n1	–	inconclusive: 22.4 µM [inhibitor, partial curve, poor fit]
O=C(Nc1cccc(NC(=O)c2cccs2)c1)c1ccc([N+](=O)[O-])o1	–	inconclusive: 39.8 µM [inhibitor, single point]
CCCNC(=O)C1(CC2CC(c3ccccc3)=NO2)CCN(C(=O)c2ccccc2)CC1 (centres undefined)	–	inconclusive: 39.8 µM [inhibitor, single point]
CC(=O)C1=C(C)N(Cc2ccccc2)C(=O)N[C@@H]1c1cccc(C(F)(F)F)c1	–	inconclusive: 39.8 µM [inhibitor, single point]
Cc1nc2sccn2c1-c1nc(-c2cc3ccccc3o2)cs1	–	inconclusive: 39.8 µM [inhibitor, single point]
Cc1ccccc1CN1CCC(CNc2ncnc3onc(-c4ccc(Cl)cc4)c23)CC1	inactive: 6.68%	–
Cc1ccc2nc(/C(C#N)=C/c3cccc(Br)c3)[nH]c2c1	–	inconclusive: 56.2 µM [inhibitor, partial curve, poor fit]
CCC12CN3CC(C)(CN(C1)C3c1ccc(O)cc1O)C2=O (centres undefined)	inactive: 17.2%	–
O=C(NCc1ccccc1Cl)C1CCN(S(=O)(=O)c2ccc3c(c2)CCCN3C(=O)C2CCC2)CC1	inactive: 29.3%	–
COc1cc(Cn2c(N)c(C#N)c3nc4ccccc4nc32)cc(OC)c1	–	inconclusive: 89.1 µM [inhibitor, single point]
O=S(=O)(NCc1cc(-c2ccc(Cl)cc2)no1)c1ccccc1	–	inconclusive: 39.8 µM [inhibitor, single point]

SMILES	activity, negative = inhibition	Potency
CCOC(=O)c1c(NC(=O)COc2ncnc3ccccc23)sc(C)c1C	inactive: 6.03%	–
O=C(c1cccnc1)N1C2C=CC(C2)C1(C(F)(F)F)C(F)(F)F (centres undefined)	–	inconclusive: 12.6 µM [inhibitor, full curve, poor fit]
CC(C)CN(C(=O)CCNC(=O)c1ccccc1Cl)C1CCS(=O)(=O)C1 (centres undefined)	–	inconclusive: 14.1 µM [inhibitor, partial curve, poor fit]
Cc1cccc(N2C(=O)C(CC(=O)Nc3cccc(F)c3)N(Cc3cccs3)C2=O)c1 (centres undefined)	–	inconclusive: 79.4 µM [inhibitor, partial curve, poor fit]
O=C1NN(c2ccccc2)C(=O)/C1=C/c1ccc(-c2ccc(C(=O)O)cc2)o1	–	active: 3.55 µM
O=S(=O)(c1ccc(F)cc1)N1CCC(Oc2ccc(-n3cnnn3)cc2)CC1	inactive: 1.34%	–
COc1cccc(CNC(=O)c2nnn(CC(=O)Nc3cc(Cl)ccc3C)c2N)c1	–	active: 50.1 µM
COc1cc(C=NNc2ccc(S(=O)(=O)Nc3ccccc3C(=O)O)cc2[N+](=O)[O-])ccc1O	–	inconclusive: 56.2 µM [inhibitor, partial curve, poor fit]
CC1CCN(C(=O)Nc2ccc3nsnc3c2)CC1	–	inconclusive: 17.8 µM [inhibitor, full curve, poor fit]
COCC(C)OC(=O)c1c(N)n(CC(C)C)c2nc3ccccc3nc12 (centres undefined)	–	inconclusive: 39.8 µM [inhibitor, partial curve, poor fit]
Nc1nc(-c2cc(O)ccc2[N+](=O)[O-])cc(-c2ccccc2)c1[N+](=O)[O-]	–	inconclusive: 14.1 µM [inhibitor, full curve]
O=C(O)c1ccc(Cl)c(S(=O)(=O)Nc2ccc3cn[nH]c3c2)c1	–	inconclusive: 11.2 µM [inhibitor, partial curve, poor fit]
CCC(CC)C(=O)Nc1cc(-c2cn3cccnc3n2)ccc1OC	–	inconclusive: 89.1 µM [inhibitor, single point]
COc1ccc(-n2nnnc2SCC(=O)NCc2ccco2)cc1OC	–	inconclusive: 79.4 µM [inhibitor, partial curve, poor fit]
O=C(CCC1CC(=O)Nc2ccccc21)NCc1ccccc1 (centres undefined)	–	inconclusive: 89.1 µM [inhibitor, full curve, poor fit]
COc1ccc2cc(C(=O)/C=C/c3cc(OC)c(O)c(OC)c3)ccc2c1	–	inconclusive: 15.8 µM [inhibitor, partial curve, poor fit]
Cc1cc(-c2ccc(C)c(S(=O)(=O)N3CCCC(C)C3)c2)on1 (centres undefined)	inactive: 18.9%	–
CCOc1ccc(N=C(/C(C(=O)C(=O)N2CCOCC2)=C(/O)c2ccccc2)c2ccccc2)cc1	inactive: 28.8%	–
Cc1ccc(-c2[nH]nc3c2C(c2ccc(OC(=O)N4CCOCC4)cc2)C(C#N)=C(N)O3)cc1 (centres undefined)	–	inconclusive: 28.2 µM [inhibitor, single point]
CCOC(=O)c1c(NC(C)=O)c2c3c(sc2n1Cc1nc(-c2ccc(Cl)cc2)oc1C)CCCC3	inactive: -7.02%	–
CCc1ccc(CNC(=O)c2ccc(CSc3nc4ccncc4n3Cc3ccc(OC)cc3)cc2)cc1	–	inconclusive: 79.4 µM [inhibitor, single point]
CC(C)c1ccc(S(=O)(=O)N2CCN(C(=S)NCc3ccco3)CC2)cc1	–	inconclusive: 35.5 µM [inhibitor, full curve, poor fit]

SMILES	activity, negative = inhibition	Potency
Cc1coc2c1C(=O)C(=O)c1c-2ccc2c1CCCC2(C)C	–	inconclusive: 22.4 µM [inhibitor, partial curve, poor fit]
CCN(CC(=O)NCc1ccc(Cl)cc1)C(=O)c1oc2ccccc2c1C	–	inconclusive: 89.1 µM [inhibitor, single point]
O=C(Nc1cccc(F)c1)c1coc(=O)c(Br)c1	–	inconclusive: 20 µM [inhibitor, partial curve, poor fit]
COc1ccc(CNC(=O)C[C@H]2C[C@H](C(=O)N3CCOCC3)[C@@]3(CCC4CCCC4)c4[nH]c5ccc(Cl)cc5c4CCN3C2=O)cc1OC	–	inconclusive: 39.8 µM [inhibitor, single point]
COc1ccc(NC(=O)C2Cc3ccccc3CN2C(=O)c2ccco2)cc1 (centres undefined)	inactive: 85%	–
O=C(Nc1cccc(-c2cn3ccccc3n2)c1)C1CC1	–	inconclusive: 89.1 µM [inhibitor, single point]
Cc1cccc([C@@H]2[C@@H]3C(=O)N(C)C(=O)[C@@H]3[C@@H]3C(=O)Nc4ccccc4C(=O)N23)c1	–	inconclusive: 0.708 µM [inhibitor, full curve, poor fit]
Cc1ccc(NC(=O)CSCn2nnc3c(=O)[nH]c(Cc4ccc(F)cc4)nc32)c(C)c1	–	inconclusive: 50.1 µM [inhibitor, partial curve, poor fit]
Cc1nnc(NC(=O)CS(=O)(=O)Cc2ccccc2)s1	–	inconclusive: 25.1 µM [inhibitor, full curve, poor fit]
CCOC(=O)C1=C(O)c2ccccc2C(=O)/C1=C\c1ccc(C)cc1	–	inconclusive: 7.08 µM [inhibitor, full curve, poor fit]
COc1ccc(N2CCN(CC(O)COC(C)(C)C)CC2)cc1 (centres undefined)	inactive: 12.5%	–
COc1ccc(C(C)(C)C)cc1NC(=O)c1ccc2ncsc2c1	–	inconclusive: 15.8 µM [inhibitor, full curve, poor fit]
CN1CCN(NS(=O)(=O)c2cccs2)CC1	–	inconclusive: 35.5 µM [inhibitor, single point]
CC1(c2ccc3c(c2)OCO3)NC(=O)N(CC(=O)c2ccc[nH]2)C1=O (centres undefined)	inactive: 11.1%	–
Cc1cc(C)c(NC(=O)COc2ccc(-n3cnnn3)cc2)c(C)c1	–	inconclusive: 35.5 µM [inhibitor, partial curve]
O=C(N/N=C/c1c(Cl)cccc1Cl)c1ccc(-n2cnnn2)cc1	inactive: 31.5%	–
O=C(N/N=C/c1ccccn1)c1ccc(NC(=O)c2ccc(F)cc2)cc1	–	inconclusive: 22.4 µM [inhibitor, full curve, poor fit]
COc1ccc(C(=O)Nc2cc3c4c(c2)CC(=O)N4CCC3)cc1	inactive: 1.95%	–
Cc1[nH]oc(=O)c1N=Nc1ccccc1	–	inconclusive: 89.1 µM [inhibitor, single point]
CCn1c(=O)c(-[n+]2ccccc2)c(O)c2ccccc21	–	inconclusive: 22.4 µM [inhibitor, partial curve, poor fit]

No new results follow: entries from further up.
SMILES	activity, negative = inhibition	Potency
COc1ccc(C(=O)Nc2cc3c4c(c2)CC(=O)N4CCC3)cc1	inactive: 1.95%	–
Cc1[nH]oc(=O)c1N=Nc1ccccc1	–	inconclusive: 89.1 µM [inhibitor, single point]
